Measurements reported in PubChem BioAssay AID1508588 (Peter MacCallum Cancer Centre, 2020).

Purpose: 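Which gene losses make BRAF-mutant melanoma cells more responsive to vemurafenib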 (primary screen)
Cell system: human WM266.4 melanoma cells (BRAF V600 mutant)
Reagent: siRNA pool against human genes, 40 nM
Timing: 96 h from transfection to read-out
Challenge: vemurafenib 300 nM (about IC25), added 48 h after transfection, for 48 h; comparison arm got DMSO vehicle only
Read-out: 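Cell gain (DAPI nuclei at end minus before drug, mean of two replicates) and medium lactate by absorbance per cell, both as ratio to non-targeting siRNA, also grouped into fold-change classes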
Scale: cell gain with vemurafenib: higher = more cell gain than with non-targeting siRNA; lactate per cell with vemurafenib: higher = more lactate made per cell
Active means: 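a knock-down counts as enhancing when its fold-change classes with vehicle and with vemurafenib, taken together, show a stronger drug effect on cell gain or lactate per cell; exact class pairs not stated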
Meaning of the calls: active = enhances vemurafenib effect; inactive = no enhancement seen
In all, the deposit lists about 18,000 reagents; below is a part drawn at random. 790 of them (4.4%) count as active. 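Calls rest on a combination of fold-change classes in drug and vehicle arms, not all shown here.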 Some reagents were tested in more than one well and are listed for each.

The opening 6 entries as a preview:
target	cell gain with vemurafenib	lactate per cell with vemurafenib	call
DGKZ (diacylglycerol kinase zeta)	0.39	0.88	inactive
CUL9 (cullin 9)	1.12	0.9	inactive
TEK (TEK receptor tyrosine kinase)	0.91	0.82	inactive
HSPB2 (heat shock protein family B (small) member 2)	0.35	1.33	inactive
COPS2 (COP9 signalosome subunit 2)	0.63	1.53	inactive
TSSK6 (testis specific serine kinase 6)	0.54	0.66	inactive

The list itself, from the first entry:
target	cell gain with vemurafenib	lactate per cell with vemurafenib	call
DGKZ (diacylglycerol kinase zeta)	0.39	0.88	inactive
CUL9 (cullin 9)	1.12	0.9	inactive
TEK (TEK receptor tyrosine kinase)	0.91	0.82	inactive
HSPB2 (heat shock protein family B (small) member 2)	0.35	1.33	inactive
COPS2 (COP9 signalosome subunit 2)	0.63	1.53	inactive
TSSK6 (testis specific serine kinase 6)	0.54	0.66	inactive
TSSK6 (testis specific serine kinase 6)	0.3	1.92	inactive
PRPS1L1 (phosphoribosyl pyrophosphate synthetase 1 like 1)	0.59	0.88	inactive
CCDC122 (coiled-coil domain containing 122)	0.2	2.08	inactive
FBXL9P (F-box and leucine rich repeat protein 9, pseudogene)	1.31	0.6	inactive
PGA4 (pepsinogen A4)	0.23	0.52	inactive
TSR2 (TSR2 ribosome maturation factor)	0.27	1.63	inactive
NIPAL1 (NIPA like domain containing 1)	0.37	1.09	inactive
TMEM117 (transmembrane protein 117)	0.74	0.78	inactive
ZC3H15 (zinc finger CCCH-type containing 15)	0.17	0.78	inactive
LILRA5 (leukocyte immunoglobulin like receptor A5)	0.5	1.17	inactive
TNRC6C (trinucleotide repeat containing adaptor 6C)	0.17	3	inactive
REC8 (REC8 meiotic cohesin complex component)	0.4	0.95	inactive
TASL (TLR adaptor interacting with endolysosomal SLC15A4)	0.96	0.73	inactive
RPL37A (ribosomal protein L37a)	-0.02	2.3	inactive
SLC30A5	0.68	0.74	inactive
RPS19 (ribosomal protein S19)	-0.1	2.34	inactive
RTL8C (retrotransposon Gag like 8C)	0.57	0.8	inactive
COL6A3 (collagen type VI alpha 3 chain)	0.07	2.31	inactive
KHDC4 (KH domain containing 4, pre-mRNA splicing factor)	0.3	0.66	active
PTAFR (platelet activating factor receptor)	0.46	0.76	inactive
PGGT1B (protein geranylgeranyltransferase type I subunit beta)	0.64	0.54	inactive
RGL1 (ral guanine nucleotide dissociation stimulator like 1)	0.66	0.52	inactive
TRIM27 (tripartite motif containing 27)	0.49	1	inactive
TRIM27 (tripartite motif containing 27)	0.57	1.38	inactive
VTA1 (vesicle trafficking 1)	0.55	0.54	inactive
SIN3B (SIN3 transcription regulator family member B)	0.33	2.44	inactive
NETO2 (neuropilin and tolloid like 2)	0.78	0.73	inactive
RPL21P44 (ribosomal protein L21 pseudogene 44)	0.44	0.66	inactive
PSAPL1 (prosaposin like 1)	1.1	0.85	inactive
TP53TG3 (TP53 target 3)	0.17	0.26	inactive
CHST10 (carbohydrate sulfotransferase 10)	0.65	0.99	inactive
DOK4 (docking protein 4)	0.55	0.86	inactive
FGF6 (fibroblast growth factor 6)	0.42	1.54	inactive
IFNGR2 (interferon gamma receptor 2)	0.84	1.16	inactive
TANC1	0.87	0.68	inactive
KIF2B (kinesin family member 2B)	1.03	0.61	inactive
CCPG1 (cell cycle progression 1)	0.26	0.98	inactive
HES5 (hes family bHLH transcription factor 5)	0.56	1.02	inactive
NAA20 (N-alpha-acetyltransferase 20, NatB catalytic subunit)	0.68	1.02	inactive
CEACAM6 (CEA cell adhesion molecule 6)	0.31	0.85	inactive
RGPD7 (retired record)	0.91	1.08	inactive
HBP1 (HMG-box transcription factor 1)	0.37	0.56	inactive
BEX5 (brain expressed X-linked 5)	0.69	0.87	inactive
DPCD (deleted in primary ciliary dyskinesia homolog (mouse))	0.79	1.08	inactive
CBLN3 (cerebellin 3 precursor)	0.94	0.61	inactive
PGA3 (pepsinogen A3)	0.12	0.99	inactive
RPS6KB2 (ribosomal protein S6 kinase B2)	0.72	0.41	active
CLCN7 (Cl-/H+ antiporter 7)	-0.06	0.37	active
OR11L1 (olfactory receptor family 11 subfamily L member 1)	0.37	1.16	inactive
SRSF8 (serine and arginine rich splicing factor 8)	1.11	0.97	inactive
NR2C1 (nuclear receptor subfamily 2 group C member 1)	0.51	1.09	inactive
KLF6 (KLF transcription factor 6)	0.09	1.38	inactive
ANKRD20A5P (ankyrin repeat domain 20 family member A5, pseudogene)	0.39	0.93	inactive
H2BC14 (H2B clustered histone 14)	0.4	0.25	active
DHX57 (DExH-box helicase 57)	0.22	1.34	inactive
BORCS5 (BLOC-1 related complex subunit 5)	0.59	0.64	inactive
TMC4 (transmembrane channel like 4)	0.68	0.74	inactive
GABPA (GA binding protein transcription factor subunit alpha)	0.61	0.92	inactive
MBNL3 (muscleblind like splicing regulator 3)	0.2	1.45	inactive
SHD (Src homology 2 domain containing transforming protein D)	0.02	1.82	inactive
PDHB (pyruvate dehydrogenase E1 subunit beta)	0.4	0.46	inactive
TRIM49 (tripartite motif containing 49)	1.06	0.89	inactive
IDH1 (isocitrate dehydrogenase (NADP(+)) 1)	0.74	0.96	inactive
CDKL1 (cyclin dependent kinase like 1)	0.48	0.47	inactive
IL27RA (interleukin 27 receptor subunit alpha)	0.33	0.66	inactive
DUSP23 (dual specificity phosphatase 23)	0.48	0.84	inactive
DIS3 (DIS3 exosome endoribonuclease and 3'-5' exoribonuclease)	0.54	0.87	inactive
CWF19L2 (CWF19 like cell cycle control factor 2)	0.48	0.9	inactive
IDH3B	0.32	0.38	inactive
TMEM186 (transmembrane protein 186)	0.41	0.94	inactive
CNOT11 (CCR4-NOT transcription complex subunit 11)	1.15	1.37	inactive
DAPP1 (dual adaptor of phosphotyrosine and 3-phosphoinositides 1)	0.81	1.46	inactive
PMP22 (peripheral myelin protein 22)	0.68	0.84	inactive
UBE2T (ubiquitin conjugating enzyme E2 T)	0.07	1.54	inactive
CYB5R4 (cytochrome b5 reductase 4)	0.32	1.68	inactive
OTUD6B (OTU deubiquitinase 6B)	0.82	0.9	inactive
SURF1 (SURF1 cytochrome c oxidase assembly factor)	0.61	1.11	inactive
MTMR6 (myotubularin related protein 6)	0.58	0.96	inactive
